# Reference: article PMC7819943, “Rice protein-binding microarrays: a tool to detect cis-acting elements near promoter regions in rice”
# Sequences of proteins named here, by UniProt entry; tags and fusion partners are left off.
# UniProt Q0JBA9, entry or part of it: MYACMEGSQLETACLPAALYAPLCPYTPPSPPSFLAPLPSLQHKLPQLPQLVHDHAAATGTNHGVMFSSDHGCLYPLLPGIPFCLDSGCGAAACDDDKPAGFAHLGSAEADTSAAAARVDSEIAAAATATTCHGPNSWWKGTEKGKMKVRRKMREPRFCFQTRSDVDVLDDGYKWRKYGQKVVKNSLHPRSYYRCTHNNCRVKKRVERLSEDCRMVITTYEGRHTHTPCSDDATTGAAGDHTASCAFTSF
# Some of the results follow.
# Molecular target: OsWRKY34 (Oryza sativa, UniProt Q0JBA9 1-250)
# Experiment: protein-binding microarray (RPBM); PBS, 2% BSA, 51.3 ng/ul salmon testes DNA, 50 uM zinc acetate, 200 nM TF, 25 C, 1 h; high values mean tight binding
# Details: protein: recombinant; tags: N-terminal polyhistidine and DsRed monomer fusion (pET32a); label: CyDye5-dUTP incorporated in the synthesized complementary strand; 3' TTTTT single-stranded linker to array surface; dsDNA, one strand shown
# Summary of the method: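 Polyhistidine-tagged DsRed fusions of transcription factors, joined at the N-terminus, were expressed in E. coli BL21-CodonPlus and isolated on Ni–NTA. They were incubated at 200 nM for 1 h at 25 °C on a custom Agilent array, double-stranded and BSA-blocked, in PBS with 2% BSA, salmon testes DNA and 50 µM zinc acetate. The binding signal is per-feature fluorescence intensity (arbitrary units) read on an Axon 4000B scanner after washing.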
row,Sequence,binding signal
1,TTTCATCCCTTAAGATATATCCCTTTGTTTTTTATACCACCGGAGTCACCTAGTGCAG,8960 fluorescence intensity (a.u.)
2,TTTCATACCTCGCTTTATACGACATTTGTGCAAATCATCGCGGAGTCACCTAGTGCAG,8670 fluorescence intensity (a.u.)
3,CTTATATTTTCATTTAGTGTGTGTTTTTTTTCTATTTTTCCGGAGTCACCTAGTGCAG,11600 fluorescence intensity (a.u.)
4,CTCAACCTTGCTTCCATTCTTTCCATCCACCCGCCGATCGCGGAGTCACCTAGTGCAG,10200 fluorescence intensity (a.u.)
5,ATGGTCAAACATGTGAGAAAAAGTCAACGGCGTCATCTATCGGAGTCACCTAGTGCAG,19600 fluorescence intensity (a.u.)
6,CGTCCACCGCACACCGCCCGAGGGCCCAACACCCGGTCCACGGAGTCACCTAGTGCAG,8870 fluorescence intensity (a.u.)
7,ACACTGTTCATGCACTTTTTATTTTTTTAGTGGACCAACTCGGAGTCACCTAGTGCAG,8450 fluorescence intensity (a.u.)
8,CTATACCAGCGCCCCGCGCCTTCAGCTTGTCGTGCTCCTCCGGAGTCACCTAGTGCAG,8560 fluorescence intensity (a.u.)
9,CTATGATTTTTTTGTTTTCCGTGCTCTAAGTTCATCTTCACGGAGTCACCTAGTGCAG,8330 fluorescence intensity (a.u.)
10,AAACCATTAAAATTTTCACTTCCAATTTGCTTTCGTCCCGCGGAGTCACCTAGTGCAG,9880 fluorescence intensity (a.u.)
11,TGCACTTGTAGGATGGGTATTTAATTATGTGTTTTACTTACGGAGTCACCTAGTGCAG,12300 fluorescence intensity (a.u.)
12,ACTACATTCGCATTGATTCAAGCAGTTGCTTCACTTTCTCCGGAGTCACCTAGTGCAG,8900 fluorescence intensity (a.u.)
13,TGCACGTATCACGGTGATAGGCCTACGCGCTATGTCTAACCGGAGTCACCTAGTGCAG,8060 fluorescence intensity (a.u.)
14,AATAGGTGTAGCTTTCGTTTCTGGGCATTCTATTTTTCATCGGAGTCACCTAGTGCAG,15300 fluorescence intensity (a.u.)
15,TAGGACGGAGGGAGTATGTGTCTGCTGTTTAGTTCCTGTACGGAGTCACCTAGTGCAG,8810 fluorescence intensity (a.u.)
16,CCCGTGTCTTGTGCTTTTTCCATTCTCGCGAACTTTCCACCGGAGTCACCTAGTGCAG,11000 fluorescence intensity (a.u.)
17,TTCAAGCCGTCCCCACCGACCGCCTCCACCATGCGGCGCCCGGAGTCACCTAGTGCAG,8170 fluorescence intensity (a.u.)
18,CGCAAGGGAGAATAGGGGTGTTGAGAGGAGGGGCGACAGGCGGAGTCACCTAGTGCAG,8240 fluorescence intensity (a.u.)
19,TCAACCACCCCGTGATGCATCTTTTTAGCTACATGGAACCCGGAGTCACCTAGTGCAG,9200 fluorescence intensity (a.u.)
20,TTATACCTTGTGTTACTTTTATTTATTCCCTTAGTATGTACGGAGTCACCTAGTGCAG,8960 fluorescence intensity (a.u.)
21,GCCTCTCAATCTGCACGTCCACATCGGTTCTCGGTGCCCGCGGAGTCACCTAGTGCAG,8140 fluorescence intensity (a.u.)

# As a short view, some entries already given.
row,Sequence,binding signal
1,TTTCATCCCTTAAGATATATCCCTTTGTTTTTTATACCACCGGAGTCACCTAGTGCAG,8960 fluorescence intensity (a.u.)
2,TTTCATACCTCGCTTTATACGACATTTGTGCAAATCATCGCGGAGTCACCTAGTGCAG,8670 fluorescence intensity (a.u.)
3,CTTATATTTTCATTTAGTGTGTGTTTTTTTTCTATTTTTCCGGAGTCACCTAGTGCAG,11600 fluorescence intensity (a.u.)
4,CTCAACCTTGCTTCCATTCTTTCCATCCACCCGCCGATCGCGGAGTCACCTAGTGCAG,10200 fluorescence intensity (a.u.)

# More entries follow:

row,Sequence,binding signal
1,AATTTTCCGTTTCTCCTTTTCTTGCTTTGTTTTTTCCTTGCGGAGTCACCTAGTGCAG,15200 fluorescence intensity (a.u.)
2,GCCCACAATTTGGTCCACAAGCTGCATCTATTCCCAAGCCCGGAGTCACCTAGTGCAG,8730 fluorescence intensity (a.u.)
3,CCTTTCGTTTTATATTATAATTCGTTTTGACTTTTTTCTTCGGAGTCACCTAGTGCAG,10500 fluorescence intensity (a.u.)
4,TACTGTTGAGAGACCTTGTTTGCACTCGTTTTCGTAAGTTCGGAGTCACCTAGTGCAG,9140 fluorescence intensity (a.u.)
5,GAGCATTGGGTTGGGCCTTCCTTTCTTGTATTCGGCTTCTCGGAGTCACCTAGTGCAG,16500 fluorescence intensity (a.u.)
6,CTGCTTGTTTCATCAATTGCCTCGTAAATTCCAGGTTTTACGGAGTCACCTAGTGCAG,8170 fluorescence intensity (a.u.)
7,CGTTTCTGCGGTTCTGATTTTCTTTATTGCCAACCTCCATCGGAGTCACCTAGTGCAG,8460 fluorescence intensity (a.u.)
8,GCCACACCGGCCCACACCCTGCGTCCCTACCTCGCACTCGCGGAGTCACCTAGTGCAG,11600 fluorescence intensity (a.u.)
9,CTGTGTGGTGGTGGTGGAAGTGGAGGAGCAAACCTTGGACCGGAGTCACCTAGTGCAG,8880 fluorescence intensity (a.u.)
10,CAACTCTCCACCATTTAATTTTTTTTACCTACCTCCACTTCGGAGTCACCTAGTGCAG,8150 fluorescence intensity (a.u.)
11,CTTTATATCATCGGAAAACGATAGTCCTCTACGTAGTAAACGGAGTCACCTAGTGCAG,8180 fluorescence intensity (a.u.)
12,GTGGGCGTGGGCCCCGCGTCCTGTGGTGGTGGTGGGTGCTCGGAGTCACCTAGTGCAG,9200 fluorescence intensity (a.u.)
13,CCTCGTTTTTTTTTTTGGGTTCATCTCGTGTGTTCCGTGACGGAGTCACCTAGTGCAG,18400 fluorescence intensity (a.u.)
14,GCTTGATTCATTAATTCATATGTGTCGTGTACTACTAATCCGGAGTCACCTAGTGCAG,11200 fluorescence intensity (a.u.)
15,TCCTTTTATTTACCTTTGTGTGCTTTATACCAGACTAGCTCGGAGTCACCTAGTGCAG,11000 fluorescence intensity (a.u.)
16,CATTATGTTTTGTTCATCTTTTATTACTAAAGTTTCGGTTCGGAGTCACCTAGTGCAG,9150 fluorescence intensity (a.u.)
17,TCGCACGCTCACTCGCCTGCTCTGACTACTCGCCTCCTGCCGGAGTCACCTAGTGCAG,8580 fluorescence intensity (a.u.)
18,GCGCGTTGACGTAACCACCTCGTCCTCATCATCATCCTCTCGGAGTCACCTAGTGCAG,8630 fluorescence intensity (a.u.)
19,TACTTATATGGGTAGGGAAGAGTATGCAGGTCCAATCTTTCGGAGTCACCTAGTGCAG,8770 fluorescence intensity (a.u.)
20,CACCGCCCCATCGATCTCCGCCCGGCCGCCACCAATCTCGCGGAGTCACCTAGTGCAG,10200 fluorescence intensity (a.u.)
21,GGTGGGAGCACGATGCGGGACGTGGGGTGGGATCGGAAGCCGGAGTCACCTAGTGCAG,8590 fluorescence intensity (a.u.)

row,Sequence,binding signal
1,ATGGCCACCCACAAGCTCGACAGCGCTGAATTCATTATTTCGGAGTCACCTAGTGCAG,8400 fluorescence intensity (a.u.)
2,ATAGTGTTACCTGTTCCAACATATTACCCAAATACACAACCGGAGTCACCTAGTGCAG,8560 fluorescence intensity (a.u.)
3,AATTATTCACACGCTAATGGACCGCTCCGTTTTCCGTGTTCGGAGTCACCTAGTGCAG,12600 fluorescence intensity (a.u.)
4,GGGGTGAGGGTACGTTCGTTGTGAGTGTCTACGTTGTACTCGGAGTCACCTAGTGCAG,10700 fluorescence intensity (a.u.)
5,CTAAGGGTGCGTTTGTTTCAGCAGTTGTGTGGGGATTTTCCGGAGTCACCTAGTGCAG,12700 fluorescence intensity (a.u.)
6,TGCCTGTCTGCCATTTCTCTCCATCTCGGTCTGTAAAATGCGGAGTCACCTAGTGCAG,8610 fluorescence intensity (a.u.)
7,ACCTAGAATCTTTCTTGATCAAACTTCCCTTTGGTTCCCTCGGAGTCACCTAGTGCAG,8810 fluorescence intensity (a.u.)
8,AACACCAATCGAACACCTTGTGGGCGTCCTGTAGCTATCCCGGAGTCACCTAGTGCAG,8360 fluorescence intensity (a.u.)
9,TAACTGATTTTTCTTTATCCCTTTGCATGCCTAATCTGATCGGAGTCACCTAGTGCAG,12200 fluorescence intensity (a.u.)
10,CACCGTTGATTTTTTAGCACATGTTTGACCGTTCGTCTTACGGAGTCACCTAGTGCAG,12900 fluorescence intensity (a.u.)
11,CTAACCCACGCCGCGCCGGCCGCCGGACGCCACTGCTCCGCGGAGTCACCTAGTGCAG,8430 fluorescence intensity (a.u.)
12,GTCCACTACCTCTAGTTAGTTTCAGTTTCCTTGCCGTAGTCGGAGTCACCTAGTGCAG,11400 fluorescence intensity (a.u.)
13,CACTACATTCTACATTTCTTTTGCATTCTCTGGTGGGTTTCGGAGTCACCTAGTGCAG,9300 fluorescence intensity (a.u.)
14,TCGCGGCCATCACGTTAGCAGCCCACTCGCTCGCTCGCTCCGGAGTCACCTAGTGCAG,8480 fluorescence intensity (a.u.)
15,TGCACTTCCTATGTCTCATCCCAGTTTTTCACTTCAACAACGGAGTCACCTAGTGCAG,11900 fluorescence intensity (a.u.)
16,CCCCACTGGCCTGTCTCCAATCTTGAGCAGTTCTCTCTTGCGGAGTCACCTAGTGCAG,8400 fluorescence intensity (a.u.)
17,CGAACGGTCAAACATGTTTAAAAAAGTCAACGGCGTCAAACGGAGTCACCTAGTGCAG,15300 fluorescence intensity (a.u.)
18,CAAACTCCGATGTTTGACTACTGACCTCTAGAGATAGTACCGGAGTCACCTAGTGCAG,9870 fluorescence intensity (a.u.)
19,CCCGTCAGTGCTTACGCTGTTAGCCTGTTACGGCAGCTGCCGGAGTCACCTAGTGCAG,9340 fluorescence intensity (a.u.)
20,TCTATTTCTTCAACCCCTTAATAATGTTGTTCTTCGCATCCGGAGTCACCTAGTGCAG,8830 fluorescence intensity (a.u.)
21,ATTCCTCTAAAATTTATCAAGTTTTGGTTCGTTCCATTGACGGAGTCACCTAGTGCAG,8450 fluorescence intensity (a.u.)

row,Sequence,binding signal
1,TTGTCTTCCTTTGTTTCGACTGGTCCAGTTTCGTCCTCTCCGGAGTCACCTAGTGCAG,10300 fluorescence intensity (a.u.)
2,TTCTTTTTCTTACCTATGTTTGAATACTTTTGCATGTAATCGGAGTCACCTAGTGCAG,9780 fluorescence intensity (a.u.)
3,GCAGCGACGACATCTGACGGCCTCACCTACCTTTCGGTCTCGGAGTCACCTAGTGCAG,8460 fluorescence intensity (a.u.)
4,TTCGTTGTCTCGCCCCGCGGTGGGCAGGTTGCGCGCCACTCGGAGTCACCTAGTGCAG,8130 fluorescence intensity (a.u.)
5,ACTCGCTGTACTCTTAAGTAATACTTAACTGTCTCTGTAGCGGAGTCACCTAGTGCAG,9570 fluorescence intensity (a.u.)
6,GAAATTAGGACTTCAGCTTTTCCATATTCTTATAATCTTACGGAGTCACCTAGTGCAG,8770 fluorescence intensity (a.u.)
7,CGCGCCGCCATGCCCTCTTCTCTTCATTCCTCGCGCGCGCCGGAGTCACCTAGTGCAG,9980 fluorescence intensity (a.u.)
8,TTTGTTTTTTTTGCTTATTTAGTTTTTTTTTCAGCTTTTTCGGAGTCACCTAGTGCAG,17300 fluorescence intensity (a.u.)
9,ACGGGTACTATTCACTGTCTGATTTTATTATTTTTGTTTCCGGAGTCACCTAGTGCAG,12900 fluorescence intensity (a.u.)
10,AGTAGCGTTACCTGTCGTACGAGTTATATTTTTCTTCCTTCGGAGTCACCTAGTGCAG,10600 fluorescence intensity (a.u.)
11,GCCTCAATTTTCACCTACTCCACCTTGATCCACCTCGATCCGGAGTCACCTAGTGCAG,13200 fluorescence intensity (a.u.)
12,GTTCCCTTTGCAAACCAGCTGGCAACCATCTATCCAATATCGGAGTCACCTAGTGCAG,9180 fluorescence intensity (a.u.)
13,TGTTGTTGTTGTTGTGGATGGTTGGTAATGGCGGCATGGTCGGAGTCACCTAGTGCAG,9120 fluorescence intensity (a.u.)
14,TATTTCTGAGTTTAACTTTTGTACCTGGGTTTTTCCTAGCCGGAGTCACCTAGTGCAG,9310 fluorescence intensity (a.u.)
15,ACATTTCCTCGCCGTTACCCGCATAATTTCCTCGAGCCGCCGGAGTCACCTAGTGCAG,14300 fluorescence intensity (a.u.)
16,ATGTCCGTGGTTATATTATTTTCCTGATTCTGAGTATGAACGGAGTCACCTAGTGCAG,10600 fluorescence intensity (a.u.)
17,GCCTCTCCACCAATCAGCGCCCACTTTTACCCACTATAAACGGAGTCACCTAGTGCAG,8560 fluorescence intensity (a.u.)
18,TTCTACCCCTTTTCTCCTCCGCTTCCTTTTACTTGGCTTGCGGAGTCACCTAGTGCAG,8420 fluorescence intensity (a.u.)
19,GGTGTTTTGGTACGTCATCTGTGTATGAGTCGGTTTTCAACGGAGTCACCTAGTGCAG,8300 fluorescence intensity (a.u.)
20,TCTCCCACGATTCGCCTTACATGTTTATTACACGCCATGACGGAGTCACCTAGTGCAG,10700 fluorescence intensity (a.u.)
21,TATCAGGCACAACTTTGACATTTTTTCTCTGTACACATAACGGAGTCACCTAGTGCAG,8140 fluorescence intensity (a.u.)
